In the supplement of paper PMC3334620:
The full ranking holds about 33,000 sequences; the median of “E-score (-0.5 to 0.5)” is about -0.0034, and the highest 2% start at about 0.25. This is one part of the list.

Biological target: T1, Yap3 (UniProt P38749)
T1 sequence: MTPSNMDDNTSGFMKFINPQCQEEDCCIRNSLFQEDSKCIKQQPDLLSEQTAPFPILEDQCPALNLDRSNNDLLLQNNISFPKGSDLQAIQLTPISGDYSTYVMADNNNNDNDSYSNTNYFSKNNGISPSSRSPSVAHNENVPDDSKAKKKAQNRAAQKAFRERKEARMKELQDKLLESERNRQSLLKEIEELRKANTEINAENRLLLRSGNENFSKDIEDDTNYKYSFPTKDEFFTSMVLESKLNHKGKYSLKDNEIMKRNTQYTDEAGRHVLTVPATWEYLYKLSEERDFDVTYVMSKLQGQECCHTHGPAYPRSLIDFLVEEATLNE
Assay: PBM E-score (8-mer binding enrichment) (E-score (-0.5 to 0.5)); higher = stronger / more preferred TF binding
Details: protein concentration: 100 nM; construct: GST-full length
Experimental: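 Universal 'all 10-mer' protein binding microarrays (Agilent AMADID 015681) probed with GST-tagged S. cerevisiae TFs (full-length or DBD) made by in vitro transcription/translation (PURExpress), about 100-200 nM. Bound TF was detected with fluorescent anti-GST. Each ungapped 8-mer (which stands for itself and its reverse complement) is scored by the PBM enrichment score (E-score), a modified Wilcoxon-Mann-Whitney statistic from -0.5 to +0.5, computed with the Universal PBM Analysis Suite. Scale: above 0.35 generally sequence-specific binding.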

| Sequence | PBM E-score |
| --- | --- |
| AATTCAAA | 0.137 |
| ACCAAGGG | 0.0222 |
| GGGTGTAA | 0.0726 |
| CAGCTCGG | -0.179 |
| ACACGAAT | 0.203 |
| GTATCGGA | 0.0886 |
| ATTCCGCG | 0.15 |
| ACTACCGA | -0.229 |
| CTGCCTGA | 0.11 |
| AATATGAA | 0.279 |
| AAGCCAGA | -0.0577 |
| AACCTAAT | -0.00022 |
| GAGTCCGC | -0.357 |
| TAGATGGA | -0.0565 |
| CACGGAAA | 0.0661 |
| ATCACAAT | 0.192 |
| TCCACGCA | -0.0448 |
| ACGTGACG | 0.179 |
| CTAGCAAC | 0.0522 |
| GGACGCAC | 0.00629 |
| GTAGAATA | 0.243 |
| AGCTCCAC | -0.143 |

| Sequence | PBM E-score |
| --- | --- |
| AAATAAGG | 0.143 |
| GGTATAAC | 0.0646 |
| ACGCCTCA | -0.123 |
| ATCGGCGC | 0.00776 |
| GCATTAAC | 0.0405 |
| AGGAAGAC | -0.135 |
| ACACGATG | -0.00607 |
| AAGACGCA | 0.0353 |
| GTTACTTA | 0.192 |
| AGTTTTAG | 0.109 |
| GCGCCCGA | -0.143 |
| TAGCGACA | 0.0502 |
| CACCAGAG | -0.215 |
| ACAACTAA | 0.245 |
| GCAAGTCA | -0.0314 |
| ACTGACAA | 0.164 |
| GGACATGA | -0.0945 |
| ATCCTAAA | -0.101 |
| ACCTAATA | 0.274 |
| TCATCGGA | 0.0415 |
| TCGGGGCA | -0.0416 |
| ACATTTTC | 0.125 |

| Sequence | PBM E-score |
| --- | --- |
| GACCTCCC | -0.384 |
| ATCGTCAC | 0.0787 |
| TAGGATAA | 0.135 |
| CGCTAACC | -0.135 |
| GTGCTTAA | 0.119 |
| CCAGAAGG | -0.27 |
| AGGACTCA | -0.196 |
| AACCTGAC | 0.108 |
| AGACCTCA | -0.141 |
| AGCTGAAA | -0.101 |
| ATGGCTCA | -0.0722 |
| AATGTCCT | -0.0241 |
| ACCTGCGG | -0.221 |
| CGCATGCC | 0.168 |
| CACGATCA | 0.0222 |
| AGGTACTC | -0.0481 |
| GAGGGATC | -0.253 |
| ACTCGTGC | -0.0487 |
| GAAGTTTA | 0.0974 |
| AGTCGGCG | -0.00585 |
| TAAGCAGA | -0.0647 |
| CCAACGCA | -0.0355 |

Some of the entries so far, bar-delimited:
Sequence | PBM E-score
CGCATGCC | 0.168
CACGATCA | 0.0222
AGGTACTC | -0.0481
GAGGGATC | -0.253
ACTCGTGC | -0.0487

(list continues)

| Sequence | PBM E-score |
| --- | --- |
| CCCAACGA | -0.0115 |
| ACCTTAGT | -0.156 |
| GACGACTC | -0.183 |
| AGCTATAC | 0.0166 |
| ACCGATGG | -0.119 |
| GAAGTTGC | -0.244 |
| CGACATAA | 0.189 |
| CTCGCAGC | -0.0243 |
| AGATGCTC | 0.0399 |
| CAGTGGCG | -0.151 |
| GTAGGCCA | -0.059 |
| CGTCCCAG | -0.169 |
| ACGTGTTG | 0.0914 |
| GACTGAGA | -0.0787 |
| CTACTCCA | 0.0135 |
| ACTCGCCT | -0.00195 |
| CATGGTGA | -0.0461 |
| GCGTCCCC | -0.254 |
| CGCTCGAG | 0.0723 |
| AGGGTGGC | -0.105 |
| CCCTAGTA | -0.0846 |
| CTCCACGC | -0.0805 |

| Sequence | PBM E-score |
| --- | --- |
| ACCGACCT | -0.0186 |
| GAAGACTA | 0.0141 |
| GATGGCCC | -0.242 |
| GATAACAA | 0.0894 |
| ACTAACGG | 0.0217 |
| ATGGCGTA | 0.0354 |
| GCTACTTA | 0.00558 |
| ACCGGACC | -0.145 |
| CCAATGTC | -0.0611 |
| CATGTGAA | -0.0348 |
| CCCAGGGC | -0.355 |
| GGTCAAAA | 0.125 |
| CATGGCTC | 0.00976 |
| AGCTGGAC | -0.119 |
| AAAACTAC | 0.196 |
| GACTCTGC | -0.159 |
| GGAATGTA | 0.0901 |
| CTACCTAA | 0.126 |
| AACAGGAT | 0.00444 |
| AAAAGGAA | 0.0678 |
| GGGCCAAC | -0.0814 |
